Literature values, collected in patent US8927063B2, “Compositions for the treatment of timber and other wood substrates” (TimTechChem International Limited, priority 2008, dated 2015).
For at least one compound, name, drawing or mass did not settle the structure.

Settings: cited from earlier work

## [Na+].[O-]c1ccccc1-c1ccccc1 [sodium orthophenyl phenate]
  pH: 13
